Assay results published in US10178866B2, “N-halamine containing fibrous compositions and uses thereof” (priority 2014, dated 2019).
At least one read-out could not be matched to a standard name with certainty.

Assay: air permeability of impregnated polypropylene nonwovens (Frazier tester)
Type: physicochemical
Settings: 21° C., 65% relative humidity, pressure drop 0.5 inch of water

For `CC1(C)NC(=O)C(C)(C)N1Cl` [Compound I, 1-chloro-2,2,5,5-tetramethyl-4-imidazolidinone], the “average air permeability of impregnated fabric” value (22 g/m^2 polypropylene nonwoven) was 52.5±1.5 ft^3/min/ft^2 and the “average air permeability of impregnated fabric” value (50 g/m^2 polypropylene nonwoven) was 28±0.5 ft^3/min/ft^2.
